In the supplement of paper PMC10849652:
The other results are listed elsewhere or left out.

Chains of the proteins cited; added tags and fusions are not shown. Lines headed by an entry give the natural chain unless they say otherwise; changes in a name come on top.
UniProt P62308, whole entry, looked up: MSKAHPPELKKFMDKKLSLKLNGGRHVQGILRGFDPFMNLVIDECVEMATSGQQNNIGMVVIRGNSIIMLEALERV
UniProt Q92540: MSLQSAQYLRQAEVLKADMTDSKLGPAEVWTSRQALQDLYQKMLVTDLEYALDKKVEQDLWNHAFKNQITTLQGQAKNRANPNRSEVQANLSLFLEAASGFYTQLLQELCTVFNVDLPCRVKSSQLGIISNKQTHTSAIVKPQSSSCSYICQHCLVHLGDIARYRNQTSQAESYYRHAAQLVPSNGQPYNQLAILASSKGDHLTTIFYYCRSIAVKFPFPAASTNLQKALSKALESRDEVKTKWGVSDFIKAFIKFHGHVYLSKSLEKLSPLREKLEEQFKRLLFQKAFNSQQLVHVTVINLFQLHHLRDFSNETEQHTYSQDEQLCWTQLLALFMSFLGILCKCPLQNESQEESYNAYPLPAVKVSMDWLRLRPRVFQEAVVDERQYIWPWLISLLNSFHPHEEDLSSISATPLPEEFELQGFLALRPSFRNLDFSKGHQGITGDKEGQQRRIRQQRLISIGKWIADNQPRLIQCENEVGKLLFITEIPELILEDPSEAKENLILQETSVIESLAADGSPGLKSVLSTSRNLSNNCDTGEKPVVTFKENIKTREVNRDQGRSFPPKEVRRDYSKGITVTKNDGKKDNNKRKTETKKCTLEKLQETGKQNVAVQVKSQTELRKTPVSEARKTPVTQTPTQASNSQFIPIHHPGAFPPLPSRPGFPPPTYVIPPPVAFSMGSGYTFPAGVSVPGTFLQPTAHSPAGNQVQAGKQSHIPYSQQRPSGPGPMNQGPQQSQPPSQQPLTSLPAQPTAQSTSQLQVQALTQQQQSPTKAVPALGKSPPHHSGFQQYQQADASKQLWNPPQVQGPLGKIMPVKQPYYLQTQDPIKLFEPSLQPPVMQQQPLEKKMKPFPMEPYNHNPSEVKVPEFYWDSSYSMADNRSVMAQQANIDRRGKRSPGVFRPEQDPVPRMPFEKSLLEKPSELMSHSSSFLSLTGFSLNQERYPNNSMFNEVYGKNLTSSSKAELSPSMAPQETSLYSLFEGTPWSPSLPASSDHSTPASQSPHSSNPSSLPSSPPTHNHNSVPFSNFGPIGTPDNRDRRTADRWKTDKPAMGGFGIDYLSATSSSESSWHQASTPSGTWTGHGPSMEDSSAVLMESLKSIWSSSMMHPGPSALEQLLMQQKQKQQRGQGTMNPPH
UniProt O95295: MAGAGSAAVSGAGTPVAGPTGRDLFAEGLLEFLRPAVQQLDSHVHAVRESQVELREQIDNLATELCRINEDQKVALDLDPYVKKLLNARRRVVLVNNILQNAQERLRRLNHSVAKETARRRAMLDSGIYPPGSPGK
UniProt P04179: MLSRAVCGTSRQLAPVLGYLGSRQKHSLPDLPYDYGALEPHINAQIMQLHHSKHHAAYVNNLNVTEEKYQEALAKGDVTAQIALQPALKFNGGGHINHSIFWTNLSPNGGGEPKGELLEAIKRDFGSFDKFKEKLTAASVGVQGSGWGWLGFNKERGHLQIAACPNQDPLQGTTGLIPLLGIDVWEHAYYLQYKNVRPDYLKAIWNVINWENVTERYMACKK
UniProt Q14683: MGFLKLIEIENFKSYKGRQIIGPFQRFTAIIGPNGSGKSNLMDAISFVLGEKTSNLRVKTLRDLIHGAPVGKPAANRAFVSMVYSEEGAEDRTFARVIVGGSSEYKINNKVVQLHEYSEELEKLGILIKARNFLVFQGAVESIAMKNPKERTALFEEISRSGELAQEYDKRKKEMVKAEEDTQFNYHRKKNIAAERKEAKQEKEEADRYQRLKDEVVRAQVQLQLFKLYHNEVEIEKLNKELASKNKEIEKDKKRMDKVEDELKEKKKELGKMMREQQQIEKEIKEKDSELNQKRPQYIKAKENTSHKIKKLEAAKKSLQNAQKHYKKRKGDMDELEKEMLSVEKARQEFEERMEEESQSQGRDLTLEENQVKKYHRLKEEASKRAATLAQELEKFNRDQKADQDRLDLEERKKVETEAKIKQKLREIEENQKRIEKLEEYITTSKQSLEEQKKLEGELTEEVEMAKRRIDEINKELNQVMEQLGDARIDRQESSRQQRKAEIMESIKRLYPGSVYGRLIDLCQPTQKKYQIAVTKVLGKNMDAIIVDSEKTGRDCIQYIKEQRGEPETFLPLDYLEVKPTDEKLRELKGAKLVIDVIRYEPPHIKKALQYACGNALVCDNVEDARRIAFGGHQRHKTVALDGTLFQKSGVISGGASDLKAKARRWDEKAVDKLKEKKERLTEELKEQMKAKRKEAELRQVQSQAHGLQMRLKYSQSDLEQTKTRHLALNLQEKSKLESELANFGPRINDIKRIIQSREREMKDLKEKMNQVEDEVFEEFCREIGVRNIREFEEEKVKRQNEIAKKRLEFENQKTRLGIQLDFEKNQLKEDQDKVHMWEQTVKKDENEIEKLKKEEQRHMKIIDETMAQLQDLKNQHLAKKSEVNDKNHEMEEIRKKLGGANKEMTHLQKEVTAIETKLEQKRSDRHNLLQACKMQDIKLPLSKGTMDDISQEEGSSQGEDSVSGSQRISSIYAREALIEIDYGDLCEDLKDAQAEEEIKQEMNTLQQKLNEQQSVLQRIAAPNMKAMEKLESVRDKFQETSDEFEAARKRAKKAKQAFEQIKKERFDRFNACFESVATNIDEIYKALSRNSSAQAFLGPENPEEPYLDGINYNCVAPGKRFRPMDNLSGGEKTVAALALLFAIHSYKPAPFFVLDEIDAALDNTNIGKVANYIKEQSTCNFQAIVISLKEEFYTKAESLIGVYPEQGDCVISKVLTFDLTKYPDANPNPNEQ
UniProt O60264, whole entry, looked up: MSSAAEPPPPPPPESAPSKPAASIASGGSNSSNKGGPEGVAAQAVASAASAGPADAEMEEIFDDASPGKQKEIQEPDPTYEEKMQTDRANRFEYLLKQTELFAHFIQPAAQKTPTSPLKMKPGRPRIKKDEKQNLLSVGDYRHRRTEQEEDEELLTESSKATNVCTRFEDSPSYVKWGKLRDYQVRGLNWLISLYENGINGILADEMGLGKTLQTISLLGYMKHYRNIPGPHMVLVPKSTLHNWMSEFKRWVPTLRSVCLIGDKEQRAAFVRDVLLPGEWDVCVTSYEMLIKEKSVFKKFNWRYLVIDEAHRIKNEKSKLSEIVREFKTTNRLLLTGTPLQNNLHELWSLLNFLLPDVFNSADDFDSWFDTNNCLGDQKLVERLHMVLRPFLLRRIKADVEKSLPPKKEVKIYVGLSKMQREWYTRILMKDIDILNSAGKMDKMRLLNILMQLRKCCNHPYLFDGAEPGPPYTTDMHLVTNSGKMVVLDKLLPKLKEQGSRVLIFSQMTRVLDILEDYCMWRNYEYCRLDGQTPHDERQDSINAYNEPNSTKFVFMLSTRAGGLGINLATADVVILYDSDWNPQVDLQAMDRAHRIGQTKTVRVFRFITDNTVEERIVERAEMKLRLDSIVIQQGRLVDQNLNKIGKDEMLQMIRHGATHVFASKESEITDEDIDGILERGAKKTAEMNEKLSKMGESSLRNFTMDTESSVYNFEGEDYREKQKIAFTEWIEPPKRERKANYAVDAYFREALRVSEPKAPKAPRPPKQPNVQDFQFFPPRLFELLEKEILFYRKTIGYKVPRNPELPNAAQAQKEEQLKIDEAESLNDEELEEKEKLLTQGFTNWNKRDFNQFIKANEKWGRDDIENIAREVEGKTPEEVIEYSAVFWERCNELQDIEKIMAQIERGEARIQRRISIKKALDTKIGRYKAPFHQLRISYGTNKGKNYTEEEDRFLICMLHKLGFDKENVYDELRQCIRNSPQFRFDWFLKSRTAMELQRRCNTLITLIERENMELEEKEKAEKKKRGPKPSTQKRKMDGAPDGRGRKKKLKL
UniProt Q9Y5W7: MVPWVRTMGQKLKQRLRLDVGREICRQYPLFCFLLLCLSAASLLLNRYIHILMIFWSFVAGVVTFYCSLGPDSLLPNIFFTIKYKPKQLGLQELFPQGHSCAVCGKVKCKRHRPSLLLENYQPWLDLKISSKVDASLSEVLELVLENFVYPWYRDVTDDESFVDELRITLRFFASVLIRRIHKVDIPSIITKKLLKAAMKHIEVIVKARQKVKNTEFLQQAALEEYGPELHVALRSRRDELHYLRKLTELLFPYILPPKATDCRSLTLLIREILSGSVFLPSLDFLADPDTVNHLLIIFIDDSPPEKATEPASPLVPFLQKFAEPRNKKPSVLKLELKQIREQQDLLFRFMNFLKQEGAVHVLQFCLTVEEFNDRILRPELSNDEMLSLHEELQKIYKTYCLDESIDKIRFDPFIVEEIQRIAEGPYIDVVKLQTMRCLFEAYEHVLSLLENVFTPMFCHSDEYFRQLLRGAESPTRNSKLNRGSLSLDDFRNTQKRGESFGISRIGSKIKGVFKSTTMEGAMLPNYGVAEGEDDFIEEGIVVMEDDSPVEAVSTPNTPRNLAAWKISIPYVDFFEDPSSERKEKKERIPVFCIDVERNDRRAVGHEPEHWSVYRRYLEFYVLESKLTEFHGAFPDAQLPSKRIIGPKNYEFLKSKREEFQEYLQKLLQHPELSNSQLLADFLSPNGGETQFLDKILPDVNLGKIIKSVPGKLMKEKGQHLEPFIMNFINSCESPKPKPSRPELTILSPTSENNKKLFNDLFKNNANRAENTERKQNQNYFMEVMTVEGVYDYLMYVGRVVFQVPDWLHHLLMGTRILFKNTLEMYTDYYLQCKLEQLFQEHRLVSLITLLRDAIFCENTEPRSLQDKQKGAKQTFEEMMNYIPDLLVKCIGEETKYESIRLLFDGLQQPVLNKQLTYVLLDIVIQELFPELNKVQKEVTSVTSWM
UniProt Q8NDV3: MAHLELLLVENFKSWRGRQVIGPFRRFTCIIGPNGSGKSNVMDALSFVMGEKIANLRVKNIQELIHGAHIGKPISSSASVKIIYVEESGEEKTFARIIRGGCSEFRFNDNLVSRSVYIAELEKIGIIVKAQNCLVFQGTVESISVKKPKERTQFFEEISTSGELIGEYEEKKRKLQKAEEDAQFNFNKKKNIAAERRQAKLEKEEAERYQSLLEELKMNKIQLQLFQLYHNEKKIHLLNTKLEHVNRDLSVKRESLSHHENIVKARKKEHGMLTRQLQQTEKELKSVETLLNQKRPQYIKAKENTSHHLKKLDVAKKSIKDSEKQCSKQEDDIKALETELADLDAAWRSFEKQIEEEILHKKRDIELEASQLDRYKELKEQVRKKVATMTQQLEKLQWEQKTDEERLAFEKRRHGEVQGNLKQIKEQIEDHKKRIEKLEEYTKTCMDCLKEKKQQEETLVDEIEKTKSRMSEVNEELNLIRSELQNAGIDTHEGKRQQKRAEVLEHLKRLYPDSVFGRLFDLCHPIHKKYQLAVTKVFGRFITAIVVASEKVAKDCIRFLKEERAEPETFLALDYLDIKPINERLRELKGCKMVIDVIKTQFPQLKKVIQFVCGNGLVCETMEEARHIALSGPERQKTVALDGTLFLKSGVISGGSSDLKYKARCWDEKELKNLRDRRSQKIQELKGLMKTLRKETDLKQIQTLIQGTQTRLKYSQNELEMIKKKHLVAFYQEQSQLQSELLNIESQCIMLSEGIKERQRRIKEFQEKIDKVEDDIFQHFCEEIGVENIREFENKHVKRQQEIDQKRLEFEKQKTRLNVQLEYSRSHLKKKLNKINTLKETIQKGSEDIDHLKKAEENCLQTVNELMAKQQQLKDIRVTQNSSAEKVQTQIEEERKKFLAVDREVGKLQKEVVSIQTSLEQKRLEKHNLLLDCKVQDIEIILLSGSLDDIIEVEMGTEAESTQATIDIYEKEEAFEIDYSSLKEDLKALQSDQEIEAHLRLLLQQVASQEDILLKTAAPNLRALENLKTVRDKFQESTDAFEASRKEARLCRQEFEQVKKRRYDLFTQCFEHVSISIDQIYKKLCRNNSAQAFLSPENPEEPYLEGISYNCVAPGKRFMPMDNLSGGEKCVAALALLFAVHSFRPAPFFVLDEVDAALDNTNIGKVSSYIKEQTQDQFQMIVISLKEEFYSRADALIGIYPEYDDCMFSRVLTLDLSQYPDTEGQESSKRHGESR

Experiments:
Assay in all cases: log2 fold change, soluble protein after heating vs DMSO (PISA); higher = thermal stabilisation; K562 lysate, 10 uM; active = over 0.2 and 3.5 SD of the protein, either way, in both replicates (recomputed)
[1] = compound: C1=CC=C(C=C1)[C@H](COC2=CC3=C(C=C2)NC(=O)N3)NC(=O)C4=CC=CN(C4=O)CC5=CC(=C(C=C5)F)F
In short: (§1)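 Dounce homogenisation of K562 pellets in PBS pH 7.4 with 1 mM MgCl2 produced a crude extract, used at 1 mg/mL protein. Exposure to 10 μM compound lasted 30 min, and aliquots were then heated for 3 min across 48°C-58°C, pooled and brought to 0.5% NP-40 at 4°C. The supernatant after 21,000xg for 90 min was quantified by TMTpro 16plex LC-MS/MS with channel sums equalised. Duplicate values are given as log-two fold change in thermal stability relative to solvent controls.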

[2] = compound: CC1=C(SC2=C1C(=N[C@H](C3=NN=C(N32)C)CC(=O)N)C4=CC=C(C=C4)Cl)C
In short: as §1

[3] = compound: CC1=C2C(=CC=C1)N=C(N(C2=O)C3=CC=CC=C3C)CN4C=NC5=C(N=CN=C54)N
In short: as §1

[4] = compound: Cc1sc2c(c1C)C(c1ccc(Cl)cc1)=N[C@@H](CC(=O)OC(C)(C)C)c1nnc(C)n1-2
In short: as §1

[5] = compound: c1ccc([C@@H]2C[C@H]2NC2CCNCC2)cc1
In short: as §1

Measured: log2 fold change

SNRPG (UniProt P62308)
inactive: [1] 0.005 | [2] -0.002 | [3] 0.007 | [4] -0.057 | [5] -0.113

SMARCAL1 (UniProt Q9NZC9)
inactive: [1] -0.082 | [2] -0.059 | [3] 0.018 | [4] 0.022 | [5] 0.096

SMC4 (UniProt C9JJ64)
inactive: [1] -0.189 | [2] 0.179

SMG7 (UniProt Q92540)
inactive: [1] 0.008 | [2] 0.019 | [3] 0.147 | [4] -0.014 | [5] 0.029

SNAPIN (UniProt O95295)
inactive: [1] 0.027 | [2] -0.074 | [3] -0.046 | [4] -0.012 | [5] -0.025

SOD2 (UniProt P04179)
inactive: [1] 0.045 | [2] -0.021 | [3] -0.006 | [4] -0.003 | [5] -0.098

SMC1A (UniProt Q14683)
inactive: [1] 0 | [2] 0.005 | [3] 0.011 | [4] 0.009 | [5] -0.001

Two entries drawn at random from the list so far:
SMC4 (UniProt C9JJ64)
inactive: [1] -0.189 | [2] 0.179

SOD2 (UniProt P04179)
inactive: [1] 0.045 | [2] -0.021 | [3] -0.006 | [4] -0.003 | [5] -0.098

Further results follow:

SMARCA5 (UniProt O60264)
inactive: [1] 0.006 | [2] 0.013 | [3] -0.005 | [4] -0.022 | [5] 0.012

SNX14 (UniProt Q9Y5W7)
inactive: [1] 0.038 | [2] -0.058 | [3] -0.014 | [4] -0.075

SMC1B isoform 3 (UniProt Q8NDV3)
inactive: [1] 0.009 | [2] 0.076 | [3] 0.12 | [4] -0.063
